Source: doi:10.1371/journal.pone.0140310, primary screening data, rounded.

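Human melanoma cells were exposed to two drugs together for 72 h in 1,536-well plates and read by automated microscopy after fixing and staining. The read-out is the fraction of cleaved-PARP-positive nuclei, in % of that fraction in the DMSO control; 200 means twice the control level of this apoptosis marker. Concentrations were fixed for each drug; these are the higher of two levels. The file gives one value for each pair and line, without errors, so small differences may be noise. Basal and induced levels differ widely between cell lines.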 This is part of the screen, not chosen by result. A dash means that no value is listed here.

Drugs:
NVP-BEZ235, 0.02 µM: Cn1c(=O)n(-c2ccc(C(C)(C)C#N)cc2)c2c3cc(-c4cnc5ccccc5c4)ccc3ncc21
MK-2206, 2 µM: NC1(c2ccc(-c3nc4ccn5c(=O)[nH]nc5c4cc3-c3ccccc3)cc2)CCC1
GSK0660, 5 µM: COC(=O)c1sccc1S(=O)(=O)Nc1ccc(Nc2ccccc2)cc1OC
tozasertib, 0.03 µM: Cc1cc(Nc2cc(N3CCN(C)CC3)nc(Sc3ccc(NC(=O)C4CC4)cc3)n2)n[nH]1
IMD-0354, 0.08 µM: O=C(Nc1cc(C(F)(F)F)cc(C(F)(F)F)c1)c1cc(Cl)ccc1O
BMS-536924, 1 µM: Cc1cc(N2CCOCC2)cc2[nH]c(-c3c(NC[C@@H](O)c4cccc(Cl)c4)cc[nH]c3=O)nc12
GSK650394, 0.8 µM: O=C(O)c1ccc(-c2c[nH]c3ncc(-c4ccccc4)cc23)cc1C1CCCC1
nilotinib, 1 µM: Cc1cn(-c2cc(NC(=O)c3ccc(C)c(Nc4nccc(-c5cccnc5)n4)c3)cc(C(F)(F)F)c2)cn1
lenalidomide, 5 µM: Nc1cccc2c1CN(C1CCC(=O)NC1=O)C2=O (configuration not stated)
CP-690550, 5 µM: C[C@@H]1CCN(C(=O)CC#N)C[C@@H]1N(C)c1ncnc2[nH]ccc12

Pair	UACC-62	LOX IMVI	G-361	MeWo	IPC-298	WM451Lu	RVH-421	501mel	MEL-HO	MZ2-MEL	COLO 800	A375	C32	WM3619	SK-MEL-2
GSK650394 + MK-2206	170	155	303	130	73.8	123	118	-	91.9	167	153	-	68.9	250	153
nilotinib + IMD-0354	126	41.6	70.5	101	124	37.5	125	-	141	88.7	81.4	71.0	272	122	116
GSK650394 + BMS-536924	66.0	144	206	213	103	63.9	123	-	205	262	214	-	312	117	101
lenalidomide + BMS-536924	70.0	295	173	136	62.1	138	100	-	40.2	225	95.8	-	98.7	107	57.4
GSK650394 + lenalidomide	120	96.0	288	109	546	175	201	-	94.0	166	378	-	26.4	344	188
nilotinib + NVP-BEZ235	264	105	162	69.9	123	198	125	-	175	60.3	151	142	465	188	47.3
NVP-BEZ235 + BMS-536924	185	147	113	133	97.7	139	73.7	-	98.7	212	898	-	492	141	152
GSK650394 + NVP-BEZ235	161	70.3	262	153	134	57.3	102	-	203	36.8	86.7	-	65.2	150	86.7
GSK0660 + nilotinib	220	128	99.8	83.6	33.2	111	73.8	67.2	75.6	94.0	63.2	87.3	73.9	89.2	140
GSK0660 + tozasertib	102	84.9	169	210	156	46.2	148	277	127	116	428	102	99.9	129	116
BMS-536924 + CP-690550	73.5	58.6	54.5	66.3	145	70.0	58.1	-	89.5	244	256	-	34.2	81.2	143
tozasertib + NVP-BEZ235	239	71.3	148	74.5	86.6	94.6	64.1	-	95.8	163	233	39.5	283	140	235
nilotinib + lenalidomide	179	72.1	129	62.1	33.0	454	372	-	193	147	81.1	79.0	168	93.6	103
nilotinib + CP-690550	88.6	128	60.3	74.8	59.9	70.7	96.5	-	65.0	122	105	-	36.8	71.0	171
GSK0660 + NVP-BEZ235	367	129	97.8	129	96.9	316	52.9	176	56.6	136	143	200	87.7	152	144
MK-2206 + IMD-0354	184	70.9	64.8	97.5	181	171	130	-	88.6	176	68.6	77.9	125	108	80.2
GSK0660 + lenalidomide	15.6	147	25.4	62.1	82.3	30.8	60.6	117	66.9	71.0	63.8	46.1	89.4	71.0	89.9
GSK0660 + MK-2206	301	122	163	182	90.0	47.7	111	36.6	53.7	33.2	169	84.0	93.6	91.3	133
BMS-536924 + IMD-0354	124	85.2	147	93.6	161	124	63.9	-	82.4	382	196	-	148	103	60.3
MK-2206 + CP-690550	106	47.2	160	74.3	73.4	40.0	53.4	-	80.0	120	344	-	230	136	149
IMD-0354 + GSK0660	28.1	74.8	57.7	115	101	170	80.5	91.0	165	66.6	162	36.1	71.6	96.1	81.3
tozasertib + GSK650394	136	124	286	117	53.3	80.8	73.4	-	279	274	243	-	166	105	161
lenalidomide + CP-690550	71.8	50.7	100	99.3	79.9	102	151	-	139	71.7	154	-	63.8	96.3	46.8
GSK0660 + BMS-536924	50.3	54.2	139	57.8	148	56.4	49.5	110	51.0	79.2	127	53.4	79.2	125	193
tozasertib + lenalidomide	211	52.7	98.3	121	263	39.2	143	-	43.2	361	359	101	122	101	141
MK-2206 + nilotinib	249	82.2	91.7	56.8	87.9	106	132	-	152	134	119	85.8	619	70.8	169
GSK0660 + GSK650394	23.0	24.3	235	107	71.9	82.8	89.6	66.9	359	71.7	95.2	158	95.6	136	201
nilotinib + BMS-536924	172	263	143	53.0	37.8	159	105	-	157	229	116	-	799	111	62.5
CP-690550 + NVP-BEZ235	122	80.4	120	91.2	77.5	113	109	-	94.1	66.8	78.6	-	76.8	113	91.6
GSK0660 + CP-690550	159	167	30.4	101	94.7	62.7	494	101	92.7	89.1	34.6	35.6	80.4	101	26.4
IMD-0354 + tozasertib	177	63.5	85.4	123	219	163	86.0	-	146	202	850	88.1	251	108	145
IMD-0354 + CP-690550	61.3	47.9	112	89.5	75.7	45.8	32.0	-	79.6	137	79.5	-	105	92.0	80.9
nilotinib + GSK650394	137	321	154	141	34.0	40.0	139	-	202	106	197	-	137	89.3	78.3
NVP-BEZ235 + MK-2206	354	91.2	205	69.8	82.3	56.9	50.2	-	104	202	65.1	301	144	178	344
CP-690550 + tozasertib	142	174	194	101	102	38.0	53.5	-	72.0	246	401	-	148	123	75.2
CP-690550 + GSK650394	107	296	30.7	90.1	71.8	55.1	73.9	-	48.5	237	786	-	57.4	126	155
IMD-0354 + GSK650394	44.4	66.2	225	158	115	178	79.9	-	97.5	190	92.1	-	152	76.2	251
lenalidomide + NVP-BEZ235	321	226	82.0	59.8	40.5	90.9	70.6	-	134	80.5	69.7	249	299	137	186

The first 3 entries again:

Pair	UACC-62	LOX IMVI	G-361	MeWo	IPC-298	WM451Lu	RVH-421	501mel	MEL-HO	MZ2-MEL	COLO 800	A375	C32	WM3619	SK-MEL-2
GSK650394 + MK-2206	170	155	303	130	73.8	123	118	-	91.9	167	153	-	68.9	250	153
nilotinib + IMD-0354	126	41.6	70.5	101	124	37.5	125	-	141	88.7	81.4	71.0	272	122	116
GSK650394 + BMS-536924	66.0	144	206	213	103	63.9	123	-	205	262	214	-	312	117	101